Measured values from article PMC12589423.
No constants are given. Whether binding was seen depends on the method and setting. In cells and extracts the contact can be indirect. Some binding calls cover weakened binding; strength is not graded here. Tags and fused reporters may be left off the sequences shown.

Amino acid sequences for entries named in this document (tags omitted).
UniProt O95573: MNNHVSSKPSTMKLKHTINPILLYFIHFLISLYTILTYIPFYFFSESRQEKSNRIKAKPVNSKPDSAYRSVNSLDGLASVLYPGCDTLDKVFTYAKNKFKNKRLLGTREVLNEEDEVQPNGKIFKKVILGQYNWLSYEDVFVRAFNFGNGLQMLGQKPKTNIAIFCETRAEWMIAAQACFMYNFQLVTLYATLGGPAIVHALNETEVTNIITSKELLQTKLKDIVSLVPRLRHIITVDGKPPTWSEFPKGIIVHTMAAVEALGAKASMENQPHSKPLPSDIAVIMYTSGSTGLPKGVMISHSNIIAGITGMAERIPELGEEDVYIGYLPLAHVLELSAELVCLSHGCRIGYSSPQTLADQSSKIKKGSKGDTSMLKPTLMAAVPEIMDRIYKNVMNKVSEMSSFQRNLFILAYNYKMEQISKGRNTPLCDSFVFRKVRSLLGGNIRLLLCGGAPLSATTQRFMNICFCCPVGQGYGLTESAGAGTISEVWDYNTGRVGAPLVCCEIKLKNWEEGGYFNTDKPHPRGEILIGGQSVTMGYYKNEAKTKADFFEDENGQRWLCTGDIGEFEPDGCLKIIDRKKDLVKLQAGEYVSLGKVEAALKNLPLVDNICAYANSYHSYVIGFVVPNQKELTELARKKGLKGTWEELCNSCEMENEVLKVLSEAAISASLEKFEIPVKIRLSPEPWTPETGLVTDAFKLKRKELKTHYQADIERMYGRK

T1: TMEM166-GFP (human (cDNA library of Huh7 cells)) (UniProt Q9H8M9)
T1 sequence: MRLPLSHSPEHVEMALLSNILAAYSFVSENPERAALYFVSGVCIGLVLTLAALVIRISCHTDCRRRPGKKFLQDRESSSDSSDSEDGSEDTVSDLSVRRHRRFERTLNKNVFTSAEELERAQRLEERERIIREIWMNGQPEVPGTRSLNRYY

B1: Flag-TMEM166 (protein, UniProt Q9H8M9 1-152)
chain: T1 sequence

Legend:
[1] = biological target: T1, TMEM166-GFP (human (cDNA library of Huh7 cells)); assay: co-IP; HEK293T cells transfected with plasmids for 24 h; RIPA lysates precleared with protein G sepharose, incubated with anti-GFP affinity beads overnight, washed five times; Flag-tagged partner detected by western blotting
[2] = biological target: GFP-ACSL3 (human (cDNA library of Huh7 cells)) (UniProt O95573); assay: as above

Molecule	binding [1]	binding [2]
Flag-ACSL3 (from UniProt O95573 1-720)	binds	–
B1	–	binds
